Experimental data from article PMC6168254.
No constants are given. Whether binding was seen depends on the method and setting. In cells and extracts the contact can be indirect. Some entries that bind do so weakly or less than the wild type. Where a sequence is shown, tags or fusion partners need not be part of it.

Legend:
[1] = target: T1, GFP-Subito (full-length Subito, the Drosophila MKlp2, a kinesin-6) (Drosophila melanogaster) (UniProt Q9V877); test: co-IP; GFP-tagged protein immunoprecipitated with anti-GFP magnetic beads from Drosophila ovary lysate, in the absence of phosphatase inhibitors, 2 h at 4°C; immunoblots for Grip71 and γ-tubulin
T1 sequence: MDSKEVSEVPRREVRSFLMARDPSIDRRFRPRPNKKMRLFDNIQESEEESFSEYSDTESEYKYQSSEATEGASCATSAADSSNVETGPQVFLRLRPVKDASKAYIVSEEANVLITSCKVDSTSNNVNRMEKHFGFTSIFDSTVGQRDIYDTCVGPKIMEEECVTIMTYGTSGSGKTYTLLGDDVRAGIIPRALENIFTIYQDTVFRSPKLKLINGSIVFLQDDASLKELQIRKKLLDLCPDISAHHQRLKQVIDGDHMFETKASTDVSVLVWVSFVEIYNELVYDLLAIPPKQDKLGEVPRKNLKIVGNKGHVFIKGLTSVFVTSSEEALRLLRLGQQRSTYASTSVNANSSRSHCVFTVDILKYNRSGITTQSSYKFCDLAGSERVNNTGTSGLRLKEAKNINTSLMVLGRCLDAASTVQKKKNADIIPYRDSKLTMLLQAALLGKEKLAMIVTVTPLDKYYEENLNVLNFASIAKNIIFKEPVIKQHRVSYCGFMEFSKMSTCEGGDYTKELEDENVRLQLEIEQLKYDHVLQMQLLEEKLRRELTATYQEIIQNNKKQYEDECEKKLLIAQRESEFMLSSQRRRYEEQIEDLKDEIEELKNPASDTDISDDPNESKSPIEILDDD

[2] = target: T2, GFP-SubitoΔN (Subito lacking the N-terminal 89 residues) (Drosophila melanogaster) (UniProt Q9V877); test: co-IP; GFP-tagged protein immunoprecipitated with anti-GFP magnetic beads from lysate of ovaries co-expressing control (white) shRNA, in the presence of phosphatase inhibitors (1 µM okadaic acid, 10 mM p-nitrophenyl phosphate), 20 mM Tris-HCl pH 7.5, 50 mM NaCl, 0.5% Triton X-100, 1 h at 4°C; immunoblots for Grip71 and γ-tubulin
T2 sequence: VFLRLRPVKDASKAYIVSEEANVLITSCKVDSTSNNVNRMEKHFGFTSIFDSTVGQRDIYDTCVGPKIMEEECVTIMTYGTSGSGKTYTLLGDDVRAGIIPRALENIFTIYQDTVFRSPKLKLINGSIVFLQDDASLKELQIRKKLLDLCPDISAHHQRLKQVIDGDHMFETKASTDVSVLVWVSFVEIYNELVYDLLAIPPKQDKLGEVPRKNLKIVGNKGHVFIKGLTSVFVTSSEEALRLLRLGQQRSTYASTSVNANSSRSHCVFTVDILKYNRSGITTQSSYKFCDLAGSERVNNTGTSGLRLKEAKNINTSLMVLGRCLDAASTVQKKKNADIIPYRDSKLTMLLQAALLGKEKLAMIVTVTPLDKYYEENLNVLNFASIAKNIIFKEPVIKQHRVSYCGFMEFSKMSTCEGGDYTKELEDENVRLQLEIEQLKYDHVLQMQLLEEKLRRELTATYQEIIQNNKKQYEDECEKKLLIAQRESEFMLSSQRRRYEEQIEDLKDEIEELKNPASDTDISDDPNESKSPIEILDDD

[3] = target: T1, GFP-Subito (full-length Subito, the Drosophila MKlp2, a kinesin-6) (Drosophila melanogaster); test: as above

B1: Grip71/NEDD1, a component of the γ-tubulin ring complex (protein, UniProt Q9VJ57 1-646)
chain: MHVISTSKKTVLSDFADLETKSEYVHQNAEPTDFQFNGQRRVFVEVDKMAGLAVMRIKEKDGKTPEIQRVRKLTIDNAFCVACAKQSLEEIAVGQSGCVKLYNFRTAQLIHRFPADPQRSTVLYMDYNNTDEYIAAVRDGGDISILGTKTKQKTNTFTIDGDSTLVRFHPSKRFHLSIASYKGAVTVYDVQGMRKIFHASEAHSAPCRDISMCTSQPALLVSVGYDCKINIFDIRRNRAQASTDRLTYSHPLSTVALSECGTYLCAGNLKGELIAYDMRSTKAPLAVRSVHDAAVTRVAFVPVPSGDNQQNGSLNSSENATGLATEAPRVERAPSDELRKSIAANLLSTQNQLTSLGYGVSTPTIVRRDSFCEFLDAQGPRAVDRMSTRLGASYRDSFDWETLNRKPQPYETANRQSLCPPVASGPSSVDNSVNSSTTESLQQTLSGPLKDRSNISGDGKLMKIAETDELCEEQSANISVASSTGGGSDKENPPPVDAEMKRRLRLLSASRNSTPHHANITPQSSNPLLKPQQLLAKSSSGLSAQMDADWRKEFSELRDFVDQRCEKVERELEYVTFSNQRLLANKMTNYMDQQVENTREIRDALALLLQGDSFMREFSRLQNENEMLKAKLKFYQEQEQTESCGE
binding [1]: binds | binding [2]: binds | binding [3]: binds weakly
